# Where “and” joins values, the source holds several entries; their conditions need not be identical. Equal values may be shown once. Inconclusive means that the source gave no clear call. Such entries were picked first, then a sample of the others. Potencies of inconclusive entries are doubtful fits and often do not repeat. More than one record can exist for a structure, and the calls need not agree. Calls of active or inactive are those of the source. The calls were made as follows: active = hit-call score of the fitted dose curve at least 0.9, where 1 is the maximum; inconclusive = response in the unintended direction; inactive = score below 0.9.
# Experiments:
# [1] = VALA_TUBIPS_Antagonist_CellCount: Viability Assessment in the VALA Sciences human iPS-derived Endothelial Tubule Formation (TUBIPS) Antagonism Assay (AID 2284335)
# [2] = VALA_MIGHUV1_ScratchOnly_WoundArea: VALA Sciences human Umbilical Vein Endothelial Cell Migration (MIGHUV) Assay, Area of Scratch Wound Inhibited Recovery (AID 2284336)
# Outline: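 HUVEC monolayers (9000 cells/well) were scratched after 24 h, dosed within 30 min (six concentrations, triplicate, 0.1% DMSO), allowed 24 h recovery, then fixed. Hoechst-stained nuclei in the wound imaged; cytochalasin D as reference.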
# [3] = VALA_TUBHUV_Agonist_TubuleLength: VALA Sciences human Umbilical Vein Endothelial Tubule Formation (TUBHUV) Agonism Assay (AID 2284337)
# Outline: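 HUVEC co-cultured with fibroblasts (1:3) 3 days in 10 ng/ml VEGF, then 3 days with compound plus VEGF; 0.1 % DMSO neutral control. Fixed, nuclear and CD31 stained; tubule length by fluorescence imaging.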
# [4] = IUF_NPC1_cytotoxicity_72hr: Cytotoxicity Assessment at 72 hours in the Leibniz Research Institute for Environmental Medicine (IUF) Neural Progenitor Cell Proliferation Assay (NPC1) (AID 2284332);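 also: rising LDH signal means more cytotoxicity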
# Outline: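 Human fetal neural progenitor spheres (0.3 mm) in EGF/FGF proliferation medium, 37C, exposed 72 h without renewal. LDH release in supernatant read by resorufin fluorescence; gain of signal scored relative to dynamic range.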
# [5] = VALA_TUBIPS_Agonist_CellCount: Viability Assessment in the VALA Sciences human iPS-derived Endothelial Tubule Formation (TUBIPS) Agonism Assay (AID 2284338)
# [6] = TAMU_PeakParms_SingleDonor1434_Asystole: Texas A&M University (TAMU) 1.5-hr Human Induced Pluripotent Stem Cell (iPSC)-derived Cardiomyocytes Calcium (Ca+2) Flux Assay for Cardiotoxicity: Asystole (quiescence of beating) (AID 2284328)
# Outline: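 Human iPSC-derived cardiomyocytes (donor 1434) were exposed to 0.2, 1, 10 and 100 uM compound in 0.5% DMSO for 90 min at 37C. Ca2+-dye fluorescence gave average peak frequency; POD is EC95, a 95% beat-rate drop versus DMSO.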
structure (smiles),measurement,setting,value
O=[N+]([O-])c1cc(C(F)(F)F)c(Cl)c([N+](=O)[O-])c1Nc1ncc(C(F)(F)F)cc1Cl,AC50,[1],inconclusive: 10000 nM
same,outcome,[2],inactive
same,AC50,[3],inconclusive: 1980 nM
CC[C@H](C)[C@H]1O[C@]2(C=C[C@@H]1C)C[C@@H]1C[C@@H](C/C=C(\C)[C@@H](O[C@H]3C[C@H](OC)[C@@H](O[C@H]4C[C@H](OC)[C@@H](NC)[C@H](C)O4)[C@H](C)O3)[C@@H](C)/C=C/C=C3\CO[C@@H]4[C@H](O)C(C)=C[C@@H](C(=O)O1)[C@]34O)O2,AC50,[4],active: 18.5 µM and active: 3.79 µM
CCCCC(CC)COP(=O)(Oc1ccccc1)Oc1ccccc1 (configuration not stated),AC50,[4],inconclusive: 10 µM
Clc1ccc(Cl)c(Cl)c1,AC50,[1],inconclusive: 1.28 nM
same,AC50,[3],inconclusive: 50000 nM
same,AC50,[5],inconclusive: 82.4 nM
CCOc1cc(Oc2ccc(C(F)(F)F)cc2Cl)ccc1[N+](=O)[O-],outcome,[4],inactive
CC(C)CCCCCCCOP(=O)(Oc1ccccc1)Oc1ccccc1,outcome,[6],inactive
ClCC(Cl)CCl,outcome,[1],inactive
same,outcome,[2],inactive
CO[C@@H]1[C@H](OC(=O)NC(=O)CCl)CC[C@]2(CO2)[C@H]1[C@@]1(C)O[C@@H]1CC=C(C)C,AC50,[1],inconclusive: 1.29 nM
same,AC50,[2],inconclusive: 3200 nM
same,outcome,[2],inactive
same,AC50,[3],inconclusive: 489 nM
same,outcome,[3],inactive
same,AC50,[5],active: 168 nM
c1cc2c3c(cccc3c1)CC2,AC50,[6],inconclusive: 32200 nM
Cc1ccc(N)cc1N,AC50,[1],inconclusive: 1.29 nM
same,AC50,[2],inconclusive: 1.29 nM
ClC1=C(Cl)C2(Cl)C3C(Cl)C=CC3C1(Cl)C2(Cl)Cl (configuration not stated),AC50,[6],inconclusive: 4700 nM

# Given bar-delimited: entries from further up.
structure (smiles) | measurement | setting | value
O=[N+]([O-])c1cc(C(F)(F)F)c(Cl)c([N+](=O)[O-])c1Nc1ncc(C(F)(F)F)cc1Cl | AC50 | [1] | inconclusive: 10000 nM
same | outcome | [2] | inactive

# — PubChem BioAssay (EPA / NIEHS)
